The list is a part of this screen's results and no random one: it gathers tests that were run many times, whatever their T/C, doses with no T/C, and many T/C values between a quarter and a half above the control. Further doses and runs are listed elsewhere. T/C gives the treated animals as a percentage of the vehicle group. Some doses have a count of surviving animals in place of a T/C: the source holds a T/C of zero for them, seemingly a mark for toxic or unscored doses. Some doses without a T/C left all or most animals alive at the check, yet need not have been tolerated: the source hardly ever lists a survival T/C far under the control, and the zero likely stands for such cases as well. Survivors were counted at the toxicity check, usually on the fifth day, unless a day is given; later deaths do not show. Schedule codes are those of the source, read here as Q, the interval in days (D) or hours (H), X, the number of doses. Some schedules carry Z or #; the key to these is not given. For survival time, this PubChem deposit counts one and a half times the control or more as active, and values a quarter to a half above the control carry no call in these data; other NCI protocols may use other cut-offs. Counts like (3×) give the number of equal values in this list. Some entries were tested several times; the results are listed from low to high. Some T/C values carry the count of animals alive at the toxicity check (mostly the fifth day); where none is given, no animal had died by that day.
System: CD2F1 mice, L1210 leukemia sc, survival T/C
Assay: NCI In Vivo Anticancer Drug Screen. Data for tumor model L1210 Leukemia (subcutaneous) in CD2F1 (CDF1) mice
Settings: higher T/C = longer survival
Summary of the method: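 Compound given to mice bearing transplantable tumor. Survival or tumor size then recorded. Result expressed relative to vehicle-dosed control group as T/C.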

[1] = T/C endpoint: median survival time, dose: 400.0 mg/kg/injection, schedule: Q01DX009 (ip), vehicle: saline with Tween-80

## CN(C)/N=N/c1nc[nH]c1C(N)=O
T/C endpoint: mean survival time, dose: 100.0 mg/kg/injection, schedule: Q01DX017 (sc), vehicle: steroid suspending solution
  T/C: 129 % of control
T/C endpoint: mean survival time, dose: 108.0 mg/kg/injection, schedule: Q01DX009 (sc), vehicle: steroid suspending solution
  T/C: 126 % of control
T/C endpoint: mean survival time, dose: 180.0 mg/kg/injection, schedule: Q01DX009 (sc), vehicle: steroid suspending solution
  T/C: 135 % of control
T/C endpoint: mean survival time, dose: 300.0 mg/kg/injection, schedule: Q01DX009 (sc), vehicle: steroid suspending solution
  T/C: 146 % of control
T/C endpoint: median survival time, dose: 18.75 mg/kg/injection, schedule: Q01DX009 (sc), vehicle: saline
  T/C: 125 % of control
T/C endpoint: median survival time, dose: 25.0 mg/kg/injection, schedule: Q01DX009 (ip), vehicle: saline with Tween-80
  T/C: 133 % of control
T/C endpoint: median survival time, dose: 25.0 mg/kg/injection, schedule: Q01DX009 (ip), vehicle: saline
  T/C: 126 % of control
T/C endpoint: median survival time, dose: 37.5 mg/kg/injection, schedule: Q01DX009 (sc), vehicle: saline
  T/C: 133 % of control
T/C endpoint: median survival time, dose: 50.0 mg/kg/injection, schedule: Q01DX009 (ip), vehicle: saline with Tween-80
  T/C: 144 % of control
T/C endpoint: median survival time, dose: 50.0 mg/kg/injection, schedule: Q01DX009 (ip), vehicle: saline
  T/C: 135 % of control
T/C endpoint: median survival time, dose: 75.0 mg/kg/injection, schedule: Q01DX009 (ip), vehicle: saline
  T/C: 148 % of control
T/C endpoint: median survival time, dose: 75.0 mg/kg/injection, schedule: Q01DX009 (sc), vehicle: saline
  T/C: 135 % of control
T/C endpoint: median survival time, dose: 100.0 mg/kg/injection, schedule: Q01DX017 (sc), vehicle: steroid suspending solution, evaluated on day 6
  T/C: 126 % of control
T/C endpoint: median survival time, dose: 100.0 mg/kg/injection, schedule: Q01DX017 (sc), vehicle: steroid suspending solution, evaluated on day 27
  T/C: 127 % of control
T/C endpoint: median survival time, dose: 108.0 mg/kg/injection, schedule: Q01DX009 (sc), vehicle: steroid suspending solution
  T/C: 128 % of control
T/C endpoint: median survival time, dose: 108.0 mg/kg/injection, schedule: Q01DX Z (sc), vehicle: steroid suspending solution
  T/C: 127 % of control
T/C endpoint: median survival time, dose: 150.0 mg/kg/injection, schedule: Q01DX009 (sc), vehicle: saline, evaluated on day 30
  T/C: 135, 158, 172 % of control
T/C endpoint: median survival time, dose: 150.0 mg/kg/injection, schedule: Q01DX009 (sc), vehicle: saline, evaluated on day 45
  T/C: 148 % of control
T/C endpoint: median survival time, dose: 180.0 mg/kg/injection, schedule: Q01DX009 (sc), vehicle: steroid suspending solution
  T/C: 135 % of control
T/C endpoint: median survival time, dose: 180.0 mg/kg/injection, schedule: Q01DX Z (sc), vehicle: steroid suspending solution
  T/C: 133 % of control
T/C endpoint: median survival time, dose: 300.0 mg/kg/injection, schedule: Q01DX009 (sc), vehicle: saline
  T/C: 136 % of control (2×)
[1]
  T/C: 126 % of control [9 of 10 alive]
T/C endpoint: median survival time, dose: 400.0 mg/kg/injection, schedule: Q01DX009 (sc), vehicle: saline + alcohol
  T/C: 128 % of control
T/C endpoint: median survival time, dose: 600.0 mg/kg/injection, schedule: Q01DX009 (sc), vehicle: saline
  T/C: 147 % of control
T/C endpoint: median survival time, dose: 833.0 mg/kg/injection, schedule: Q01DX Z (sc), vehicle: carboxymethylcellulose (CMC)
  survivor count: 5 of 8
T/C endpoint: median survival time, dose: 1200.0 mg/kg/injection, schedule: Q01DX009 (sc), vehicle: saline + alcohol
  T/C: 128 % of control
T/C endpoint: median survival time, dose: 1200.0 mg/kg/injection, schedule: Q01DX009 (sc), vehicle: saline
  T/C: 143 % of control
T/C endpoint: median survival time, dose: 1800.0 mg/kg/injection, schedule: Q01DX009 (sc), vehicle: saline + alcohol
  T/C: 128 % of control

## CC(=O)Oc1ccc[nH]c1=O
[1]
  T/C: 137 % of control

## O=NN(CCCl)C(=O)NC1CCCCC1
T/C endpoint: median survival time, dose: 2.0 mg/kg/injection, schedule: Q01DX009 (ip), vehicle: saline + alcohol
  T/C: 125 % of control
T/C endpoint: median survival time, dose: 3.0 mg/kg/injection, schedule: Q01DX Z (ip), vehicle: carboxymethylcellulose (CMC)
  T/C: 133 and 137 % of control
T/C endpoint: median survival time, dose: 4.0 mg/kg/injection, schedule: Q01DX009 (sc), vehicle: saline + alcohol, evaluated on day 30
  T/C: 149 % of control
T/C endpoint: median survival time, dose: 4.0 mg/kg/injection, schedule: Q01DX009 (sc), vehicle: saline + alcohol, evaluated on day 45
  T/C: 168, 227, 250 % of control
T/C endpoint: median survival time, dose: 5.0 mg/kg/injection, schedule: Q01DX Z (iv), vehicle: carboxymethylcellulose (CMC)
  T/C: 125 % of control
T/C endpoint: median survival time, dose: 7.5 mg/kg/injection, schedule: Q01DX009 (ip), vehicle: Klucel (hydroxypropylcellulose) (HPC)
  T/C: 149 % of control
T/C endpoint: median survival time, dose: 8.0 mg/kg/injection, schedule: Q01DX009 (sc), vehicle: saline + alcohol, evaluated on day 30
  T/C: 203 % of control
T/C endpoint: median survival time, dose: 8.0 mg/kg/injection, schedule: Q01DX009 (sc), vehicle: saline + alcohol, evaluated on day 45
  T/C: 219, 336, 512, 520 % of control
T/C endpoint: median survival time, dose: 23.0 mg/kg/injection, schedule: Q01DX001 (sc), vehicle: carboxymethylcellulose (CMC)
  T/C: 125 % of control
T/C endpoint: median survival time, dose: 32.0 mg/kg/injection, schedule: Q01DX009 (ip), vehicle: saline + alcohol
  T/C: 136 % of control
T/C endpoint: median survival time, dose: 32.0 mg/kg/injection, schedule: Q01DX009 (sc), vehicle: saline + alcohol
  T/C: 146 % of control
T/C endpoint: median survival time, dose: 39.0 mg/kg/injection, schedule: Q01DX001 (sc), vehicle: carboxymethylcellulose (CMC)
  T/C: 125 % of control
T/C endpoint: median survival time, dose: 39.0 mg/kg/injection, schedule: Q01DX Z (ip), vehicle: carboxymethylcellulose (CMC)
  T/C: 133 % of control
T/C endpoint: median survival time, dose: 39.0 mg/kg/injection, schedule: Q01DX Z (iv), vehicle: carboxymethylcellulose (CMC)
  T/C: 144 % of control
T/C endpoint: median survival time, dose: 39.0 mg/kg/injection, schedule: Q01DX Z (sc), vehicle: carboxymethylcellulose (CMC)
  T/C: 144 % of control
T/C endpoint: median survival time, dose: 39.0 mg/kg/injection, schedule: Q07DX Z (sc), vehicle: carboxymethylcellulose (CMC)
  T/C: 125 % of control
T/C endpoint: median survival time, dose: 60.0 mg/kg/injection, schedule: Q01DX009 (ip), vehicle: Klucel (hydroxypropylcellulose) (HPC)
  survivor count: 8 of 10
T/C endpoint: median survival time, dose: 65.0 mg/kg/injection, schedule: Q01DX Z (oral), vehicle: carboxymethylcellulose (CMC)
  T/C: 127 % of control
T/C endpoint: median survival time, dose: 65.0 mg/kg/injection, schedule: Q01DX Z (sc), vehicle: carboxymethylcellulose (CMC)
  T/C: 138 % of control
T/C endpoint: median survival time, dose: 120.0 mg/kg/injection, schedule: Q01DX009 (ip), vehicle: Klucel (hydroxypropylcellulose) (HPC)
  survivor count: 8 of 10

## N#CC(c1ccccc1)c1cccc2ccccc12 (configuration not stated)
T/C endpoint: median survival time, dose: 108.0 mg/kg/injection, schedule: Q01DX Z (sc), vehicle: methylcellulose (MC)
  T/C: 142 % of control [9 of 10 alive]
T/C endpoint: median survival time, dose: 180.0 mg/kg/injection, schedule: Q01DX Z (sc), vehicle: methylcellulose (MC)
  T/C: 133 % of control
T/C endpoint: median survival time, dose: 300.0 mg/kg/injection, schedule: Q01DX Z (sc), vehicle: methylcellulose (MC)
  survivor count: 3 of 10
T/C endpoint: median survival time, dose: 500.0 mg/kg/injection, schedule: Q01DX Z (sc), vehicle: methylcellulose (MC)
  survivor count: 0 of 10

## COc1cccc2c1C(=O)c1c(O)c3c(c(O)c1C2=O)C[C@@](O)(C(=O)CO)C[C@@H]3OC1CC(OC(C)=O)C(OC(C)=O)C(C)O1 (some centres not stated)
T/C endpoint: median survival time, dose: 6.25 mg/kg/injection, schedule: Q01DX009 (ip), vehicle: distilled water + Tween-80
  T/C: 125 and 134 % of control
T/C endpoint: median survival time, dose: 25.0 mg/kg/injection, schedule: Q01DX009 (ip), vehicle: distilled water + Tween-80
  survivor count: 10 of 10

## O=C(O)CCCc1ccc(N(CCCl)CCCl)cc1
T/C endpoint: median survival time, dose: 1.5 mg/kg/injection, schedule: Q01DX009 (sc), vehicle: saline with Tween-80
  survivor count: 2 of 10
T/C endpoint: median survival time, dose: 3.0 mg/kg/injection, schedule: Q01DX009 (sc), vehicle: saline with Tween-80
  survivor count: 5 of 10
T/C endpoint: median survival time, dose: 6.0 mg/kg/injection, schedule: Q01DX009 (sc), vehicle: saline with Tween-80
  survivor count: 5 of 10
T/C endpoint: median survival time, dose: 12.0 mg/kg/injection, schedule: Q01DX009 (sc), vehicle: saline with Tween-80
  survivor count: 6 of 10
T/C endpoint: median survival time, dose: 24.0 mg/kg/injection, schedule: Q01DX009 (ip), vehicle: saline with Tween-80
  survivor count: 7 of 10
T/C endpoint: median survival time, dose: 24.0 mg/kg/injection, schedule: Q01DX009 (sc), vehicle: saline with Tween-80
  survivor count: 5 of 10
T/C endpoint: median survival time, dose: 48.0 mg/kg/injection, schedule: Q01DX009 (ip), vehicle: saline with Tween-80
  survivor count: 0 of 10
T/C endpoint: median survival time, dose: 48.0 mg/kg/injection, schedule: Q01DX009 (sc), vehicle: saline with Tween-80
  survivor count: 0 of 10

## CC(=O)NNC(=O)c1ccccn1
T/C endpoint: median survival time, dose: 12.5 mg/kg/injection, schedule: Q01DX009 (sc), vehicle: saline
  survivor count: 3 of 10
T/C endpoint: median survival time, dose: 25.0 mg/kg/injection, schedule: Q01DX009 (sc), vehicle: saline
  survivor count: 2 of 10
T/C endpoint: median survival time, dose: 400.0 mg/kg/injection, schedule: Q01DX009 (ip), vehicle: saline
  survivor count: 1 of 10
T/C endpoint: median survival time, dose: 400.0 mg/kg/injection, schedule: Q01DX009 (sc), vehicle: saline
  survivor count: 3 of 10

Source: PubChem BioAssay AID258 (DTP/NCI, 2004)
